# Reference: PubChem BioAssay AID743255 (National Center for Advancing Translational Sciences (NCATS), 2014)
# The chains behind the UniProt entries cited, without tags or fusion partners. Where a name states a change or a piece, a line headed by the entry shows the natural chain unless it says otherwise.
# UniProt O94782: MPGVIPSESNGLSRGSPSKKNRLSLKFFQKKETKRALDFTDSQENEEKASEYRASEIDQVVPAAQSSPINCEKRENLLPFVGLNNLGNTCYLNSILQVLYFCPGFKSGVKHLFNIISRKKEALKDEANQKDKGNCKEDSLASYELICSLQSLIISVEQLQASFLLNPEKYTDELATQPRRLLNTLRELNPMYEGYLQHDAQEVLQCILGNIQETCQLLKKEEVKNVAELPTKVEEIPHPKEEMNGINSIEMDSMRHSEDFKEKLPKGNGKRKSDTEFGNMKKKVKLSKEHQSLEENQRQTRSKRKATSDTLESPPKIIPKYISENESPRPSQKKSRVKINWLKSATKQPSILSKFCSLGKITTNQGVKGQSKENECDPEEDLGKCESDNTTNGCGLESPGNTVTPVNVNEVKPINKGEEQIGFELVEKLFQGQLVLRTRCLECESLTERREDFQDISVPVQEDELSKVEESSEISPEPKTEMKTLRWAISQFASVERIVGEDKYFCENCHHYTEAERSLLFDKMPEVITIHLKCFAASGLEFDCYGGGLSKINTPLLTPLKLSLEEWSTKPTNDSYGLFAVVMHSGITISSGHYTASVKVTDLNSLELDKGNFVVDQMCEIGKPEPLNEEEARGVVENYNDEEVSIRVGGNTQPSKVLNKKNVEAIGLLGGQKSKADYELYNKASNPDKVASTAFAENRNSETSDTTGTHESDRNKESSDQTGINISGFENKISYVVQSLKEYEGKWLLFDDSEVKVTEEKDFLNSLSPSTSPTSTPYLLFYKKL
# Among all 390,000 compounds or so, about 910 (0.23%) were called active. Inconclusive results, whose numbers are uncertain, are shown with a selection of clear calls. Calls follow the shape of the dose curve; as a rule, active = well fitted inhibition curve with a large enough effect; inconclusive = small, poorly fitted or top-dose-only effect; inactive = no such curve, though single readings can be large or run the other way. Where the call is inconclusive, the potency comes from a doubtful curve fit.
# Target: Ubiquitin carboxyl-terminal hydrolase 1 (Homo sapiens) (UniProt O94782)
# Test: Inhibitors of USP1/UAF1: Primary Screen; also: nearly all actives have a fitted effect of over 60% in size
# Details: recombinant USP1/UAF1, Ub-Rhodamine cleavage fluorescence; activity change, negative = inhibition: at 57.1 µM (top of the series)
# In short: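 Step one: compound is pinned into 1nM USP1/UAF1 in HEPES pH 7.8 buffer with TCEP. Step two: 15 min room-temperature incubation. Step three: Ub-Rho (150nM final) starts cleavage, tracked by fluorescence over six one-minute reads.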
# % is scaled to controls: 0 for no effect and ±100 for the full control effect; potency is read from the fitted curve at half-maximal effect.
Compound,Potency,"activity change, negative = inhibition"
O=C(/C=C/c1ccc2c(c1)OCO2)c1c(O)n(CCC2=CCCCC2)c(=O)[nH]c1=O,"inconclusive: 0.251 µM [inhibitor, full curve, poor fit]",–
COc1cccc(NP(=O)(Oc2ccc(Cl)cc2)Oc2ccc(Cl)cc2)c1,–,inactive: -21.7%
Fc1ccc2c(c1)nnn2C1CCN(Cc2c(Cl)cccc2Cl)CC1,"inconclusive: 44.7 µM [inhibitor, partial curve]",–
Cc1c(C(=O)Nc2ccccc2)c2cc(O)ccc2n1Cc1ccccc1,"inconclusive: 15.8 µM [inhibitor, partial curve, poor fit]",–
COc1cc(/C=C2/C(=O)NC(=O)N(c3ccc(C)cc3)C2=O)cc(OC)c1OC,–,inactive: -11.7%
O=C(Nc1ccc2c(c1)OCO2)c1cccn(Cc2ccccc2)c1=O,–,inactive: -32.6%
O=C1NC(=O)C(Sc2ccccc2[N+](=O)[O-])C(=O)N1,"inconclusive: 39.8 µM [inhibitor, partial curve]",–
CC/C(=C\C=C\[C@@H]1C=C[C@@H]2CCC[C@H]2[C@@H]1C(=O)c1ccc[nH]1)[C@@H]1O[C@@H]([C@@H](C)C(=O)O)CC[C@@H]1C,"inconclusive: 44.7 µM [inhibitor, partial curve, poor fit]",–
COc1ccccc1NC(=O)CCn1cnc2onc(-c3ccc(F)cc3)c2c1=O,"inconclusive: 3.98 µM [inhibitor, single point]",–
O=C(O)c1cccc2c1NC(C(=O)O)C1CC(Sc3ccccc3[N+](=O)[O-])C(Cl)C21 (stereo not drawn),"inconclusive: 31.6 µM [inhibitor, partial curve]",–
CCOC(=O)c1c(C)n(Cc2ccco2)c2ccc(O)cc12,–,inactive: 1.67%
Cc1cccc(NC(=O)C2CCCN(S(=O)(=O)c3ccc4c(c3)oc(=O)n4C)C2)c1 (stereo not drawn),"inconclusive: 6.31 µM [inhibitor, single point]",–
Cc1ccc(O)c(C(=O)c2cc(C(=O)NCCC(C)C)c(=O)n(CCC(C)C)c2)c1,–,inactive: -11.4%
CCOP(=O)(OCC)c1cccc(O)c1,–,inactive: -9.49%
Cc1cc(OCC(=O)N2CCC(C(=O)O)CC2)c2c3c(c(=O)oc2c1)CCCC3,"inconclusive: 35.5 µM [inhibitor, single point]",–
O=C(Nc1ccc2c(c1)OCCO2)c1cccn(Cc2ccccc2)c1=O,"inconclusive: 50.1 µM [inhibitor, partial curve, poor fit]",–
COc1ccccc1CNC(=O)C(NS(=O)(=O)c1ccc2c(c1)oc(=O)n2C)C(C)C (stereo not drawn),"inconclusive: 2 µM [inhibitor, full curve, poor fit]",–
C=C1[C@@H](C)[C@H]2[C@H](Cc3ccccc3)NC(=O)[C@]23OC(=O)/C=C/[C@H](O)CCC[C@@H](C)C/C=C/[C@H]3[C@@H]1O,–,inactive: -8.97%
Cc1cc(OCC(=O)N[C@H](C(=O)O)c2ccccc2)c2c3c(c(=O)oc2c1)CCC3,"inconclusive: 28.2 µM [inhibitor, single point]",–
CCOC(=O)[C@]12Cc3cc(OC)ccc3[C@H]1N(Cc1ccccc1)C(=O)c1ccccc12,–,inactive: -19.2%
C=CCn1c(O)c(C=Nc2ccc(F)cc2)c(=O)[nH]c1=O,–,inactive: -2.32%
Cn1cnc([N+](=O)[O-])c1Sc1ccc([N+](=O)[O-])cc1,–,inactive: -3.15%
Cc1ccccc1-n1c(O)c(/C=C2/C(c3ccccc3)=Nc3ccccc32)c(=O)[nH]c1=O,–,inactive: -8.34%

# At a glance, some entries already given.
Compound,Potency,"activity change, negative = inhibition"
O=C(O)c1cccc2c1NC(C(=O)O)C1CC(Sc3ccccc3[N+](=O)[O-])C(Cl)C21 (stereo not drawn),"inconclusive: 31.6 µM [inhibitor, partial curve]",–
CCOC(=O)c1c(C)n(Cc2ccco2)c2ccc(O)cc12,–,inactive: 1.67%
Cc1cccc(NC(=O)C2CCCN(S(=O)(=O)c3ccc4c(c3)oc(=O)n4C)C2)c1 (stereo not drawn),"inconclusive: 6.31 µM [inhibitor, single point]",–
Cc1ccc(O)c(C(=O)c2cc(C(=O)NCCC(C)C)c(=O)n(CCC(C)C)c2)c1,–,inactive: -11.4%
CCOP(=O)(OCC)c1cccc(O)c1,–,inactive: -9.49%
Cc1cc(OCC(=O)N2CCC(C(=O)O)CC2)c2c3c(c(=O)oc2c1)CCCC3,"inconclusive: 35.5 µM [inhibitor, single point]",–
